Data taken from patent US20180236026A1.
Results are given in words; binding and its absence hold for the method and conditions named. In cells and extracts the contact can be indirect. Some binding calls cover weakened binding; strength is not graded here. Sequences can lack the tags named with a protein.

Amino acid sequences for entries named in this document (tags omitted).
UniProt Q99683: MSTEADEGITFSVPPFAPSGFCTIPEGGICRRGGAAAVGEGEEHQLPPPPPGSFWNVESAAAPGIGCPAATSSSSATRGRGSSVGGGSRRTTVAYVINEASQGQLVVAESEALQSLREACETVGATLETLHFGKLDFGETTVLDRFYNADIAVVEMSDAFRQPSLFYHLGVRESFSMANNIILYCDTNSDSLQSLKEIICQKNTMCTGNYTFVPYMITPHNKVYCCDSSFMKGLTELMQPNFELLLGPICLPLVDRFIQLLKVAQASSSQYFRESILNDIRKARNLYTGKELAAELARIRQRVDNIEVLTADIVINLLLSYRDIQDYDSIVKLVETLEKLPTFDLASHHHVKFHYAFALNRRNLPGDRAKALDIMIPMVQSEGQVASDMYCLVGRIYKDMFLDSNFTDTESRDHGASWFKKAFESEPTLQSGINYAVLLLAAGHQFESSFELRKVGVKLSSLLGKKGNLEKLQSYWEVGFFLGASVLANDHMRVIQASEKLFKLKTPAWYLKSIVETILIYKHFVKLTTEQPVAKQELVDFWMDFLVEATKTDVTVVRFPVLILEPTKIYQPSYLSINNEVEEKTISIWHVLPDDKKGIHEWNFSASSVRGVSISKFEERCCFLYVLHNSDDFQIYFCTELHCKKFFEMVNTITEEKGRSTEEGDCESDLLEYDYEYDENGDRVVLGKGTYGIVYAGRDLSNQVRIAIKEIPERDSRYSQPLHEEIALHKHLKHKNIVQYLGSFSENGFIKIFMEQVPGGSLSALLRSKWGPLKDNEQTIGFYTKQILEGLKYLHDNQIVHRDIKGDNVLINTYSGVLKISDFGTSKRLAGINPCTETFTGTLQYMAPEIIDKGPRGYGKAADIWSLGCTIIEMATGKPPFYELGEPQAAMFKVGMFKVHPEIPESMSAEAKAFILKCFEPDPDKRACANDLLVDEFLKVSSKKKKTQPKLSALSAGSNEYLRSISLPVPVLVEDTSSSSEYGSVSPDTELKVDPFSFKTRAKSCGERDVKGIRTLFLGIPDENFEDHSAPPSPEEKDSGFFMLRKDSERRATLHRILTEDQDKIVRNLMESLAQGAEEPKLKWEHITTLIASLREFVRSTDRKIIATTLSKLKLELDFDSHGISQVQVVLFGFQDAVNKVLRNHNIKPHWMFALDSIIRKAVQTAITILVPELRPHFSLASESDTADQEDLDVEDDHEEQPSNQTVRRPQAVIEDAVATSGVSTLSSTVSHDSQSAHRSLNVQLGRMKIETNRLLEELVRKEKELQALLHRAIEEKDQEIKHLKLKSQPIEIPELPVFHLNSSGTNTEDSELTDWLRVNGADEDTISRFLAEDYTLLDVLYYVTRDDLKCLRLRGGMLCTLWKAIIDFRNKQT

T1: MKK4 (purified) (UniProt P45985)
T1 sequence (looked up): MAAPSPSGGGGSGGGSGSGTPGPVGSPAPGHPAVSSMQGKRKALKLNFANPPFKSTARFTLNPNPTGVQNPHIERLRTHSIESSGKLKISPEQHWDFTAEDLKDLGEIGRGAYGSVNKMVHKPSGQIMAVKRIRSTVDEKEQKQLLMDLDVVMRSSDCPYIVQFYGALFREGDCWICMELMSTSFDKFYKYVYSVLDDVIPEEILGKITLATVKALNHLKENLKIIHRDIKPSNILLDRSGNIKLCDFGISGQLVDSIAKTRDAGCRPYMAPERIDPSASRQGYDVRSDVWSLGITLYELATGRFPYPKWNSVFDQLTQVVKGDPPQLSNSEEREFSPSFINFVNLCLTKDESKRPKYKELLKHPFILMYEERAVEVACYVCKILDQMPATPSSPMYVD

T2: GST-MKK4 (UniProt P45985)
T2 sequence (looked up): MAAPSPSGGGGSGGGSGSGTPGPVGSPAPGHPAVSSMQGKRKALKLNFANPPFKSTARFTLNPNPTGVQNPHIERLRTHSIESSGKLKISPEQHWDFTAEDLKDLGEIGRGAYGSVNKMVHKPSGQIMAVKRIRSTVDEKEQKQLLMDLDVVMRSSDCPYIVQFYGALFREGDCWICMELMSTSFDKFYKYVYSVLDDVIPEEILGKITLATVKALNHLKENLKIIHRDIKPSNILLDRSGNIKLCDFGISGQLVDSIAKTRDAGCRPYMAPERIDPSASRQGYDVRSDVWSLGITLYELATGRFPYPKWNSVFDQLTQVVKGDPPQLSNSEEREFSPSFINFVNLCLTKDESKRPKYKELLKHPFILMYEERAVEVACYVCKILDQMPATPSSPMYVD


What was measured:
HA-ASK1 [1] = target: HA-ASK1 (UniProt Q99683); assay: co-immunoprecipitation (summary of Example 1)
HA-ASK1 [2] = target: HA-ASK1 (UniProt Q99683); assay: co-immunoprecipitation from cells with anti-GFP antibody
HA-ASK1 [3] = target: HA-ASK1 (UniProt Q99683); assay: co-immunoprecipitation from COS7 cells with anti-GFP antibody
MKK4 (purified) [4] = target: T1, MKK4 (purified); assay: MBP pull-down, purified proteins
MKK4 (purified) [5] = target: T1, MKK4 (purified); assay: MBP pull-down (summary of Example 1)
MKK4 (purified) [6] = target: T1, MKK4 (purified); assay: MBP pull-down, purified proteins, Western blot quantified
GST-MKK4 [7] = target: T2, GST-MKK4; assay: MBP pull-down on amylose resin, purified proteins
GST-MKK4 [8] = target: T2, GST-MKK4; assay: MBP pull-down (summary of Example 1)
GST-MKK4 [9] = target: T2, GST-MKK4; assay: MBP pull-down on amylose beads, Western blot

| binding (HA-ASK1 [1]) | binding (HA-ASK1 [2]) | binding (HA-ASK1 [3]) | binding (MKK4 (purified) [4]) | binding (MKK4 (purified) [5]) | binding (MKK4 (purified) [6]) | binding (GST-MKK4 [7]) | binding (GST-MKK4 [8]) | binding (GST-MKK4 [9]) | Binder |
| --- | --- | --- | --- | --- | --- | --- | --- | --- | --- |
| binds | binds | binds | – | – | – | – | – | – | MGEKPGTRVFKKSSPNCKLTVYLGK (peptide, not shown: large carriers) [YFP-T1A] |
| – | – | – | binds | binds | binds | – | – | – | TLVPRGSPGFMGDKGTRVFKKASPNGKLTVYLGK (peptide, not shown: large carriers) [MBP-B1A] |
| – | – | – | binds | – | binds | binds | binds | binds | TLVPRGSPGFMGEKPGTRVFKKSSPNCKLTVYLGK (peptide, not shown: large carriers) [MBP-T1A] |
